Laboratory results from article PMC10404973.
These are yes or no findings as the source states them, for the method shown. Binding seen in cells or lysates may run through a third protein. Some binding calls cover weakened binding; strength is not graded here.

The chains behind the UniProt entries cited, without tags or fusion partners.
UniProt Q03164: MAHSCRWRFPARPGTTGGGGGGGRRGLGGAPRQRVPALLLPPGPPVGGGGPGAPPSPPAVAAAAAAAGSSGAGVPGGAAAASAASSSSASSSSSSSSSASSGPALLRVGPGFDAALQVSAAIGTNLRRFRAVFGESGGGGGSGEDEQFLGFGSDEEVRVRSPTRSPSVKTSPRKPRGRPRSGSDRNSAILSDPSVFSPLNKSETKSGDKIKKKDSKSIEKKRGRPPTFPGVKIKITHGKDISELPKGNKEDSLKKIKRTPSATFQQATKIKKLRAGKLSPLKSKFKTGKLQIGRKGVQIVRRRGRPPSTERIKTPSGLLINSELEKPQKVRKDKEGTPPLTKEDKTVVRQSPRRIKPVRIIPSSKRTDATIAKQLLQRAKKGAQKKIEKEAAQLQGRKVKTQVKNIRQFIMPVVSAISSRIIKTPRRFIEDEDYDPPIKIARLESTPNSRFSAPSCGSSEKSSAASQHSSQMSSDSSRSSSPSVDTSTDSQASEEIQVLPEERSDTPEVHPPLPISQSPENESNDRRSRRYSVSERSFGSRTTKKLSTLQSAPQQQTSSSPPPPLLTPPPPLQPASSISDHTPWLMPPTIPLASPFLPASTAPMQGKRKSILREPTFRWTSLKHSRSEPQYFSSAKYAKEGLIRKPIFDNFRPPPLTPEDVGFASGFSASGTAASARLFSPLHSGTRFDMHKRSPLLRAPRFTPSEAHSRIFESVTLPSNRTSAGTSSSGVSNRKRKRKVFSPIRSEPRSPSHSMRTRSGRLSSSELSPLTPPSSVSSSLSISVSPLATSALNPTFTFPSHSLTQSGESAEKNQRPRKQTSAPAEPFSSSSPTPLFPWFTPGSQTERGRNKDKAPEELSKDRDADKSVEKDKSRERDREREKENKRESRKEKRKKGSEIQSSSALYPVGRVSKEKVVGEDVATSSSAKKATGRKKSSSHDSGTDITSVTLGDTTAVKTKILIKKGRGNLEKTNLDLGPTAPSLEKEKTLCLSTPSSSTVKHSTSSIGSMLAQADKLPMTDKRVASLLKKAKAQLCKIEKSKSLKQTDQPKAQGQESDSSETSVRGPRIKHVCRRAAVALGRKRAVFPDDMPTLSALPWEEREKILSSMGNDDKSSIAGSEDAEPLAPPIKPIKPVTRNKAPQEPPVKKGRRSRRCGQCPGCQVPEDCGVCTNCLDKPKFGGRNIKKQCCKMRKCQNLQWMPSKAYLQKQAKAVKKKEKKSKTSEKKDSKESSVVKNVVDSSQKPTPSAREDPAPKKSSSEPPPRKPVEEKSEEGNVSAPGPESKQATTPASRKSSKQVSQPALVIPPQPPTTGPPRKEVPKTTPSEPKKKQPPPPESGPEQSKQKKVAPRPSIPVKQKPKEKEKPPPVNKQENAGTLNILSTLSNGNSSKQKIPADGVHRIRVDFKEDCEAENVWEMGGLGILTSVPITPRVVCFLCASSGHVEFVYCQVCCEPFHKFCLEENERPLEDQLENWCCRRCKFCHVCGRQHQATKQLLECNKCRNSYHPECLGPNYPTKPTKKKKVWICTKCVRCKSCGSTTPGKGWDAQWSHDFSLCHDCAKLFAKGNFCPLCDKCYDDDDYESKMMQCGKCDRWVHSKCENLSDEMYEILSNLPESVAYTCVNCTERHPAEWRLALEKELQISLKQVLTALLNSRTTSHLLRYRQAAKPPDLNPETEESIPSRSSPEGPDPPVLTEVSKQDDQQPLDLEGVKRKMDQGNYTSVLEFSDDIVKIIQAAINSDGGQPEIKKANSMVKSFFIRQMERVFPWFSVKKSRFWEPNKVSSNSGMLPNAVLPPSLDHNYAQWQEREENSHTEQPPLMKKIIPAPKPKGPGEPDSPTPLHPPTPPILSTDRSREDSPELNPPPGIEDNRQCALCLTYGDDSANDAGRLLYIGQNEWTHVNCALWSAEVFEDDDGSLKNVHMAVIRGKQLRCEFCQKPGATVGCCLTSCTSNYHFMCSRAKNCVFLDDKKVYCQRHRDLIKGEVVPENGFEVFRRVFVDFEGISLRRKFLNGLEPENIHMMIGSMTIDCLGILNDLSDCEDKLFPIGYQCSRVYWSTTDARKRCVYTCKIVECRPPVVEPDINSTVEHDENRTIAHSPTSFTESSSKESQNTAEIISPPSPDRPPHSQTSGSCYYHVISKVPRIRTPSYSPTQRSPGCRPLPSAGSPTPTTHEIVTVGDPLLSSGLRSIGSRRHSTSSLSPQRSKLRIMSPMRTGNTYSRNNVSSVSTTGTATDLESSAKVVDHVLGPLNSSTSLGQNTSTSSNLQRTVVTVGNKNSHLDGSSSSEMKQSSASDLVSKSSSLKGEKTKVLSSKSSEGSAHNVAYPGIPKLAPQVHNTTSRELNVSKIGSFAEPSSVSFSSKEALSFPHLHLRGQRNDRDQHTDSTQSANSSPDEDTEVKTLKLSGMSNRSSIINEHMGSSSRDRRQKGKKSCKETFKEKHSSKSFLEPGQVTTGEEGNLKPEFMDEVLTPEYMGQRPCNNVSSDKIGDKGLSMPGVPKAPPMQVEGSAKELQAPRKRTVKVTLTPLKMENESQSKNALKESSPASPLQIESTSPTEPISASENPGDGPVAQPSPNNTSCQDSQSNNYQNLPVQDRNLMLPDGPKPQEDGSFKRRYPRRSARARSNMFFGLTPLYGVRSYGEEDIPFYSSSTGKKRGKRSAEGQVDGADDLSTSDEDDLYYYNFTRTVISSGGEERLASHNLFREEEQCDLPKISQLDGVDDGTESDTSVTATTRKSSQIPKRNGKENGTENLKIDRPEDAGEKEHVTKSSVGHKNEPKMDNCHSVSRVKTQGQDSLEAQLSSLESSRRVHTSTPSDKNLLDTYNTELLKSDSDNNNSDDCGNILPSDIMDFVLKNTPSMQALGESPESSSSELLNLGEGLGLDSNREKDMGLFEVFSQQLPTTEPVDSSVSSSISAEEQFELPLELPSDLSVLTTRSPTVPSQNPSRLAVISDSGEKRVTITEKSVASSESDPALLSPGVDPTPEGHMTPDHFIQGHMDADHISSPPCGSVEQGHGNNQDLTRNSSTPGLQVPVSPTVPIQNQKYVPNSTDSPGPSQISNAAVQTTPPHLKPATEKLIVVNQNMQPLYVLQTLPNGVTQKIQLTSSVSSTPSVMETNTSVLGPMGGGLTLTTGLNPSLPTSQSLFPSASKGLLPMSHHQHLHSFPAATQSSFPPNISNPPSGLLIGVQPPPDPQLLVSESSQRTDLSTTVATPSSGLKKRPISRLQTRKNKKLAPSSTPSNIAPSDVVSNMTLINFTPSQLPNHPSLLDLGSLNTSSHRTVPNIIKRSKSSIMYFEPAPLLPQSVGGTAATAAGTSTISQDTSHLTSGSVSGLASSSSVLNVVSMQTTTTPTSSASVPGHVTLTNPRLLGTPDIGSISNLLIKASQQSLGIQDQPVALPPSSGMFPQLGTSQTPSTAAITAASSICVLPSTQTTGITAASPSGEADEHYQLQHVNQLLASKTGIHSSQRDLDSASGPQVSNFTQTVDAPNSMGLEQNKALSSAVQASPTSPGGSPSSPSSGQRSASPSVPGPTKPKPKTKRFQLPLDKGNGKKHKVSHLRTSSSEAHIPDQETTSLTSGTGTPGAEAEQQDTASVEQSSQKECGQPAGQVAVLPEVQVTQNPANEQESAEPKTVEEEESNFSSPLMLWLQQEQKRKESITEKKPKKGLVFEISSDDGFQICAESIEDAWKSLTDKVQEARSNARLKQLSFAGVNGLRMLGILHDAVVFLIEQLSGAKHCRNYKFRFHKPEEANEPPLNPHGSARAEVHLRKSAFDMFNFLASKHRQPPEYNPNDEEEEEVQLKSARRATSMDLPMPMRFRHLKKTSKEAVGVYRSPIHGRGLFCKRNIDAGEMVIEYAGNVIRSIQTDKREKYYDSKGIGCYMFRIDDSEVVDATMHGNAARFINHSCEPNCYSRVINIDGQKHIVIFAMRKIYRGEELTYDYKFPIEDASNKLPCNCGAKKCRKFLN

Target: MLL-VC210 (UniProt Q03164)
Experiment: split reporter; BiFC in HEK293T cells co-transfected with MLL-VC210 and VN210-menin; cells treated with complexes SM_1 or SM_2

B1: VN210-menin (protein, UniProt O00255 1-610)
chain: MGLKAAQKTLFPLRSIDDVVRLFAAELGREEPDLVLLSLVLGFVEHFLAVNRVIPTNVPELTFQPSPAPDPPGGLTYFPVADLSIIAALYARFTAQIRGAVDLSLYPREGGVSSRELVKKVSDVIWNSLSRSYFKDRAHIQSLFSFITGTKLDSSGVAFAVVGACQALGLRDVHLALSEDHAWVVFGPNGEQTAEVTWHGKGNEDRRGQTVNAGVAERSWLYLKGSYMRCDRKMEVAFMVCAINPSIDLHTDSLELLQLQQKLLWLLYDLGHLERYPMALGNLADLEELEPTPGRPDPLTLYHKGIASAKTYYRDEHIYPYMYLAGYHCRNRNVREALQAWADTATVIQDYNYCREDEEIYKEFFEVANDVIPNLLKEAASLLEAGEERPGEQSQGTQSQGSALQDPECFAHLLRFYDGICKWEEGSPTPVLHVGWATFLVQSLGRFEGQVRQKVRIVSREAEAAEAEEPWGEEAREGRRRGPRRESKPEEPPPPKKPALDKGLGTGQGAVSGPPRKPPGTVAGTARGPEGGSTAQVPAPTASPPPEGPVLTFQSEKMKGMKELLVATKINSSAIKLQLTAQSQVQMKKQKVSTPSDYTLSFLKRQRKGL
binding: binds
